In publication PMC11535040:
These are yes or no findings as the source states them, for the method shown. In cells and extracts the contact can be indirect. Some results given as binding are weak or reduced against the parent protein; the word gives no strength. Tags and fused reporters may be left off the sequences shown.

T1: endogenous Rad21 of HeLaK cells (human (endogenous in HeLaK)) (UniProt O60216)
T1 sequence: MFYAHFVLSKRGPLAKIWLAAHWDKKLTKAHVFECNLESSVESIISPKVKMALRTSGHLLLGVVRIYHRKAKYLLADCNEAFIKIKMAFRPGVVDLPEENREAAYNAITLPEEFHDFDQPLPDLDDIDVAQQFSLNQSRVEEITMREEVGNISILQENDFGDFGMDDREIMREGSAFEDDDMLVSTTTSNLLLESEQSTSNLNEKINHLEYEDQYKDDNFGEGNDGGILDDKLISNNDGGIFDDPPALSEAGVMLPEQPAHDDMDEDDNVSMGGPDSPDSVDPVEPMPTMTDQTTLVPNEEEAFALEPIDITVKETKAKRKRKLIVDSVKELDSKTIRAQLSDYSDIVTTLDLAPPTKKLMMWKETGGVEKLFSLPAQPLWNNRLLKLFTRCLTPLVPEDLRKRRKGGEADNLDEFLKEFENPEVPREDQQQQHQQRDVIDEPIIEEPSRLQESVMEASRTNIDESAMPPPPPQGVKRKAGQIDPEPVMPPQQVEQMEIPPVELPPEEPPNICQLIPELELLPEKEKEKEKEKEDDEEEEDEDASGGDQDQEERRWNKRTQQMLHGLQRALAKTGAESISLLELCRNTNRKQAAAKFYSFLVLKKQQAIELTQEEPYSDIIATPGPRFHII


Biological target: T1, endogenous Rad21 of HeLaK cells (human (endogenous in HeLaK))
Experiment: co-IP; Rad21-IP (guinea pig anti-Rad21 on protein A sepharose) from benzonase-treated chromatin of prometaphase HeLaK cells expressing Nek2aΔMR and Flag-tagged Pds5b-WT; washes with additional 250 mM NaCl; immunoblotting

| binding | Binder |
| --- | --- |
| binds | endogenous Pds5b of HeLaK cells (protein, UniProt Q9NTI5 1-1447) MAHSKTRTNDGKITYPPGVKEISDKISKEEMVRRLKMVVKTFMDMDQDSEEEKELYLNLALHLASDFFLKHPDKDVRLLVACCLADIFRIYAPEAPYTSPDKLKDIFMFITRQLKGLEDTKSPQFNRYFYLLENIAWVKSYNICFELEDSNEIFTQLYRTLFSVINNGHNQKVHMHMVDLMSSIICEGDTVSQELLDTVLVNLVPAHKNLNKQAYDLAKALLKRTAQAIEPYITNFFNQVLMLGKTSISDLSEHVFDLILELYNIDSHLLLSVLPQLEFKLKSNDNEERLQVVKLLAKMFGAKDSELASQNKPLWQCYLGRFNDIHVPIRLECVKFASHCLMNHPDLAKDLTEYLKVRSHDPEEAIRHDVIVSIVTAAKKDILLVNDHLLNFVRERTLDKRWRVRKEAMMGLAQIYKKYALQSAAGKDAAKQIAWIKDKLLHIYYQNSIDDRLLVERIFAQYMVPHNLETTERMKCLYYLYATLDLNAVKALNEMWKCQNLLRHQVKDLLDLIKQPKTDASVKAIFSKVMVITRNLPDPGKAQDFMKKFTQVLEDDEKIRKQLEVLVSPTCSCKQAEGCVREITKKLGNPKQPTNPFLEMIKFLLERIAPVHIDTESISALIKQVNKSIDGTADDEDEGVPTDQAIRAGLELLKVLSFTHPISFHSAETFESLLACLKMDDEKVAEAALQIFKNTGSKIEEDFPHIRSALLPVLHHKSKKGPPRQAKYAIHCIHAIFSSKETQFAQIFEPLHKSLDPSNLEHLITPLVTIGHIALLAPDQFAAPLKSLVATFIVKDLLMNDRLPGKKTTKLWVPDEEVSPETMVKIQAIKMMVRWLLGMKNNHSKSGTSTLRLLTTILHSDGDLTEQGKISKPDMSRLRLAAGSAIVKLAQEPCYHEIITLEQYQLCALAINDECYQVRQVFAQKLHKGLSRLRLPLEYMAICALCAKDPVKERRAHARQCLVKNINVRREYLKQHAAVSEKLLSLLPEYVVPYTIHLLAHDPDYVKVQDIEQLKDVKECLWFVLEILMAKNENNSHAFIRKMVENIKQTKDAQGPDDAKMNEKLYTVCDVAMNIIMSKSTTYSLESPKDPVLPARFFTQPDKNFSNTKNYLPPEMKSFFTPGKPKTTNVLGAVNKPLSSAGKQSQTKSSRMETVSNASSSSNPSSPGRIKGRLDSSEMDHSENEDYTMSSPLPGKKSDKRDDSDLVRSELEKPRGRKKTPVTEQEEKLGMDDLTKLVQEQKPKGSQRSRKRGHTASESDEQQWPEEKRLKEDILENEDEQNSPPKKGKRGRPPKPLGGGTPKEEPTMKTSKKGSKKKSGPPAPEEEEEEERQSGNTEQKSKSKQHRVSRRAQQRAESPESSAIESTQSTPQKGRGRPSKTPSPSQPKKNVRVGRSKQAATKENDSSEEVDVFQGSSPVDDIPQEETEEEEVSTVNVRRRSAKRERR |
| binds | Flag-tagged Pds5b-WT expressed in HeLaK cells (protein, UniProt Q9NTI5 1-1447) MAHSKTRTNDGKITYPPGVKEISDKISKEEMVRRLKMVVKTFMDMDQDSEEEKELYLNLALHLASDFFLKHPDKDVRLLVACCLADIFRIYAPEAPYTSPDKLKDIFMFITRQLKGLEDTKSPQFNRYFYLLENIAWVKSYNICFELEDSNEIFTQLYRTLFSVINNGHNQKVHMHMVDLMSSIICEGDTVSQELLDTVLVNLVPAHKNLNKQAYDLAKALLKRTAQAIEPYITNFFNQVLMLGKTSISDLSEHVFDLILELYNIDSHLLLSVLPQLEFKLKSNDNEERLQVVKLLAKMFGAKDSELASQNKPLWQCYLGRFNDIHVPIRLECVKFASHCLMNHPDLAKDLTEYLKVRSHDPEEAIRHDVIVSIVTAAKKDILLVNDHLLNFVRERTLDKRWRVRKEAMMGLAQIYKKYALQSAAGKDAAKQIAWIKDKLLHIYYQNSIDDRLLVERIFAQYMVPHNLETTERMKCLYYLYATLDLNAVKALNEMWKCQNLLRHQVKDLLDLIKQPKTDASVKAIFSKVMVITRNLPDPGKAQDFMKKFTQVLEDDEKIRKQLEVLVSPTCSCKQAEGCVREITKKLGNPKQPTNPFLEMIKFLLERIAPVHIDTESISALIKQVNKSIDGTADDEDEGVPTDQAIRAGLELLKVLSFTHPISFHSAETFESLLACLKMDDEKVAEAALQIFKNTGSKIEEDFPHIRSALLPVLHHKSKKGPPRQAKYAIHCIHAIFSSKETQFAQIFEPLHKSLDPSNLEHLITPLVTIGHIALLAPDQFAAPLKSLVATFIVKDLLMNDRLPGKKTTKLWVPDEEVSPETMVKIQAIKMMVRWLLGMKNNHSKSGTSTLRLLTTILHSDGDLTEQGKISKPDMSRLRLAAGSAIVKLAQEPCYHEIITLEQYQLCALAINDECYQVRQVFAQKLHKGLSRLRLPLEYMAICALCAKDPVKERRAHARQCLVKNINVRREYLKQHAAVSEKLLSLLPEYVVPYTIHLLAHDPDYVKVQDIEQLKDVKECLWFVLEILMAKNENNSHAFIRKMVENIKQTKDAQGPDDAKMNEKLYTVCDVAMNIIMSKSTTYSLESPKDPVLPARFFTQPDKNFSNTKNYLPPEMKSFFTPGKPKTTNVLGAVNKPLSSAGKQSQTKSSRMETVSNASSSSNPSSPGRIKGRLDSSEMDHSENEDYTMSSPLPGKKSDKRDDSDLVRSELEKPRGRKKTPVTEQEEKLGMDDLTKLVQEQKPKGSQRSRKRGHTASESDEQQWPEEKRLKEDILENEDEQNSPPKKGKRGRPPKPLGGGTPKEEPTMKTSKKGSKKKSGPPAPEEEEEEERQSGNTEQKSKSKQHRVSRRAQQRAESPESSAIESTQSTPQKGRGRPSKTPSPSQPKKNVRVGRSKQAATKENDSSEEVDVFQGSSPVDDIPQEETEEEEVSTVNVRRRSAKRERR |
